At least one structure is not confirmed: it was looked up by name or label, or the drawing left a doubt.
Target: avidin (Gallus gallus, UniProt P02701)
Assay: Assessment of avidin adsorption on a column conditioned with biotin trimer, avidin by ELISA
Assay type: binding
Settings: after a 40 min recirculation
Experimental: An avidin-agarose column that was conditioned with a biotin trimer (i.e. FIG. 4, compound #2) was primed with phosphate buffer. Following this, 20 mL avidin-solution with 1 mg avidin/mL in PBS was recirculated through a biotin-avidin-agarose-column at 1.0 mL/min (1.6 cm/min). Three volumes of the avidin solution (3×20 mL) were processed and aliquots were drawn from the reservoir before start of the recirculation, then after 2 main and in 5 min intervals. The aliquots were analyzed for the quantity of avidin in them using an ELISA technique developed by Mitra Medical Technology AB. The dotted line represented the theoretically expected if no saturation effect has occurred. The column is saturated after about 40 min (2 vol.) when about 16 mg (80%) of, avidin has been bound. Signs of saturation was seen after about 20 min (1.0 vol.) when the experimental curve begin to deviate from the theoretical curve which occurred when about 10 mg of Avidin had been bound to the column.
After a 40 min recirculation, about 16 mg of avidin was bound, i.e. 8 mg/mL biotin-avidin-agarose. This corresponds to a 1:1 molar ration between the avidin coupled to agarose and the avidin adsorbed to the biotin-trimer. Initial saturation effects were seen after about one recirculated volume. After 2 volumes processed no further avidin was bound.

The chains behind the UniProt entries cited, without tags or fusion partners. Residues count along the entry.
UniProt P02701, 25-152: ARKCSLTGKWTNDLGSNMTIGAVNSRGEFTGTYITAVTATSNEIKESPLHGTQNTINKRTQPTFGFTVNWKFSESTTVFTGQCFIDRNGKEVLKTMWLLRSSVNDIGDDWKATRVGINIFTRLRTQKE

## O=C(CCCCC1OCC2NC(=O)NC21)NCCOCCOCCNC(=O)c1cc(C(=O)NCCOCCOCCNC(=O)CCCCC2OCC3NC(=O)NC32)cc(C(=O)NCCOCCOCCNC(=O)CCCCC2OCC3NC(=O)NC32)c1 (stereo not shown) [biotin-trimer]
  molar ratio between avidin coupled to agarose and avidin adsorbed to the biotin-trimer: 1:1
